Out of some 1,400 compounds screened, about 140 (10%) were called active.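 Rule for the calls: active = Half-maximal inhibitory dose from the fit at or below ten times the top valid tested dose; inconclusive = Invalid fit, or flat curve showing 30 to 70% inhibition; inactive = the rest.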 Only a part is listed here, and it is no random draw. Potency and affinity values are given separately.
target: Lysine-specific demethylase 4C (Homo sapiens) (UniProt Q9H3R0); test: GASC-1 (JMJD2C) histone demethylase inhibitors, dose response, biochemical, DELFIA europium, cherry-picked samples (AID 488835); conditions: GST-JMJD2C(1-420), H3K9me3 demethylation; at 6 µM (top of the series) unless noted;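 note: signal is the H3K9me2 demethylation product detected by a dimethyl-specific antibody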

Chains of the proteins cited; added tags and fusions are not shown. Residues count along the entry.
UniProt Q9H3R0, 1-420 limits assumed: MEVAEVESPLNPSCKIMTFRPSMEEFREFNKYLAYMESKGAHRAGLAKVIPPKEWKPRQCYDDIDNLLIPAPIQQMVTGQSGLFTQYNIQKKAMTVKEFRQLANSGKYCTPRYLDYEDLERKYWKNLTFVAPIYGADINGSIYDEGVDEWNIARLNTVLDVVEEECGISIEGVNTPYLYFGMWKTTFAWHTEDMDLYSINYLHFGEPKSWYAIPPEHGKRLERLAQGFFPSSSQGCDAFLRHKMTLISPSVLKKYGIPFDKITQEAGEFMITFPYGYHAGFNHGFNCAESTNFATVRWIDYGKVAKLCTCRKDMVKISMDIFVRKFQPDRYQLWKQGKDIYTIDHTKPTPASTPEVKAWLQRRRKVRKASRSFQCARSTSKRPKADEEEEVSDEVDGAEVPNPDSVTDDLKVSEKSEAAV

Activity change, negative = inhibition, inactive:
COc1ccc(N2CCN(C(=O)c3nn(C)c4c3CS(=O)(=O)c3ccccc3-4)CC2)cc1 3.01%, CC(=O)OC(C(=O)NCc1ccc2c(c1)OCO2)c1ccccc1Cl (stereo not given) 2.05%, COc1ccccc1NC(=O)COC(=O)/C=C/c1cccs1 6.16%, Nc1nc2n(n1)C(c1cccs1)CC(c1ccccc1)N2 (stereo not given) -2.08%, CCCNC(=O)c1ccccc1N1CCN(CCCCN2C(=O)C3CCCCN3C2=O)CC1 (stereo not given) -0.153%, O=C(COC(=O)c1ccccc1SCC(=O)N1CCCC1)NC1CCS(=O)(=O)C1 (stereo not given) 6.84%, CCOc1ccccc1N(CC(=O)O)S(=O)(=O)c1ccc(C)cc1 4.42%, CCn1c(CCn2ccnc2C)n[nH]c1=S -2.6%, N#CCCn1c(SCC(=O)N2CCN(S(=O)(=O)c3ccccc3)CC2)nc2ccccc21 -3.96%, Oc1cc2ccccc2cc1-c1nnc2n1-c1ccccc1SC2 -2.47%, Cc1cc(=S)c2cccc(C)c2[nH]1 -4.31%, CCOC(=O)N1CCC(N2CCN(c3cc(C)ccc3C)CC2)CC1 -2.4%, CCc1nnc(NC(=O)CCC(=O)N2CCN(Cc3ccc(Cl)cc3)CC2)s1 -3.01%, COc1ccc(S(=O)(=O)N(C)C[C@H]2Oc3ccc(NC(=O)Cn4cnnn4)cc3C(=O)N([C@H](C)CO)C[C@@H]2C)cc1 5.25%, COc1ccc(S(=O)(=O)C(C#N)c2nc3ccccc3nc2N2CCCCC2)cc1 (stereo not given) -2.57%, CCOC(=O)Cc1ccc(NC(=O)c2ccc(C(C)(C)C)cc2)cc1 6.61%, Cc1cc(C(=O)Nc2sc3c(c2C#N)CCC(C)C3)no1 (stereo not given) 2.2%, O=C(OCc1c(Cl)cccc1Cl)c1cnccn1 13.3%, NC(=O)Cn1nc([N+](=O)[O-])nc1Oc1ccccc1F -7.81%, COc1ccc(CCNC(=O)N2c3ccccc3Sc3ccccc32)cc1 -0.0727%, O=C(Cn1cnc2c(OCc3ccccc3)ncnc21)N1CCN(c2ccccn2)CC1 -2.77%, COc1cc(C(C(=O)NC2CCCCC2)N(Cc2cccs2)C(=O)Cc2c[nH]c3ccccc23)cc(OC)c1OC (stereo not given) 6.08%, CCOc1ccc(N=Cc2c(O)n(-c3cccc(C)n3)c(=O)c3ccccc23)cc1 6.77%, CCOC(=O)C1=C(C)N(C)C(C)=C(C(=O)OCC)C1c1cccnc1 4.58%, COc1cc2c(cc1OC)C(=O)N1[C@H]3c4cc(C)ccc4OC[C@@H]3[C@H](c3ccccc3)[C@]1(C)C(=O)N2 -0.503%, COc1ccc(NC(NC(=O)c2cccnc2)C(Cl)(Cl)Cl)cc1 (stereo not given) 0.574%, N#Cc1ccc(OCC(=O)N2CCN(S(=O)(=O)c3cccs3)CC2)cc1 2.58% [at 1.6 µM], NC(=O)C1CCN(C(=O)c2ccc(Oc3cc(Cl)cc(Cl)c3)o2)CC1 -2.91%, CCN(C(=O)C(C)Sc1ccc(S(=O)(=O)N2CCOCC2)cn1)c1ccccc1 (stereo not given) -3.51%, Cc1ccc(N2NC3(CCN(C(N)=O)CC3)NC2=O)cc1 -5.57%, CN(c1ccc(C(=O)O)cc1)S(=O)(=O)c1ccccc1 3.22%, O=C(/C=C/c1cccs1)NC1CCS(=O)(=O)C1 (stereo not given) -6.7%, COc1ccc(N2C(=O)CSC23CCCCC3)cc1 18.5%, CC(C)(C)c1ccc(C2(C)NC(=O)N(CC(=O)Nc3ccc4c(c3)OCO4)C2=O)cc1 (stereo not given) 7.1%, NS(=O)(=O)c1ccc(CNC(=S)Nc2ccc(F)c(Cl)c2)cc1 2.64%, O=S1(=O)CCC(N=Nc2c(O)n(Cc3ccccc3)c3ccccc23)C1 (stereo not given) -0.825%, Cc1cccc(NC(=O)CC2Nc3cccc4cccc(c34)NC2=O)c1 (stereo not given) -1.31%, CC(C)n1cnc2c(NCc3ccccc3)nc(NCc3ccccc3)nc21 -3.21%, C[C@]12c3[nH]c4ccccc4c3CCN1C(=O)C(CC(=O)NCc1cccc(C(F)(F)F)c1)C[C@@H]2C(=O)N1CCCCC1 (stereo not given in full) 1.34%, CCc1ccc([C@@H]2CC=C(C(=O)O)[C@H](c3ccc(Br)cc3)N2S(=O)(=O)c2ccc(C)cc2)cc1 -7.79%, COc1ccc(NC(=O)N(C)C[C@H]2Oc3ccc(NC(=O)CCC(F)(F)F)cc3C(=O)N([C@H](C)CO)C[C@@H]2C)cc1 -2.68%, O=C(NCC1CCCO1)C(c1ccc(F)cc1)N(CCCN1CCOCC1)C(=O)c1ccc(-c2ccccc2)[nH]1 (stereo not given) 10.5%, CCOC(=O)C1=C(N)Oc2ccc3ccccc3c2C1c1cccnc1 (stereo not given) 13.6%, CCCN(CC(=O)Nc1ccccc1C)C(=O)C1CCN(S(=O)(=O)c2ccccc2C(F)(F)F)CC1 5.43%, Cc1c(C(c2ccc([N+](=O)[O-])cc2)c2c(C)n(C)n(-c3ccccc3)c2=O)c(=O)n(-c2ccccc2)n1C 4.33%, O=C(O)Cn1cc(/C=C2/SC(=O)N(CC(=O)N3CCCCCC3)C2=O)c2ccccc21 2.27%, c1csc(Cn2nnnc2CN2CCN(c3nc4ccccc4s3)CC2)c1 4.59%, CCN(CC(=O)Nc1ccc2c(c1)OCCO2)C(=O)CC1CCCC1 -2.11%, COc1ccc(/C=N/n2c(=O)[nH]c3c([nH]c4ccc(Br)cc43)c2=O)cc1CN1CCOCC1 -1.91%, CNC[C@@H]1Oc2c(NC(=O)Nc3ccccc3)cccc2C(=O)N([C@@H](C)CO)C[C@H]1C 0.718%, CCOC(=O)c1csc(N/N=C2\CCc3ccccc32)n1 4.71%, CCCC(=O)Nc1ccc(Oc2ccc(NC(=O)CCC)cc2)cc1 12.8%, NC(=O)NC(=O)CSc1nnc(-c2ccco2)n1Cc1ccccc1 -6.87%, O=C1/C(=C/c2cccs2)COc2ccccc21 0.426%, CC(=O)N1CCc2cc(S(=O)(=O)NC(CC(C)C)C(=O)Nc3cc(C(=O)O)ccc3C)ccc21 (stereo not given) -5.79%, COc1ccc(C2CC(c3cccs3)=NN2S(=O)(=O)c2ccc(C)cc2)cc1 (stereo not given) -2.78%, Cc1cccc(OCCCn2c(=O)oc3ccc(C)cc32)c1 -1.05%, Cc1cccc(N2CCN(C(=O)c3ccc(CS(=O)(=O)c4ccccc4C)o3)CC2C)c1 (stereo not given) -3.17%, c1ccc2c(c1)ccc1nnc(-c3ccc4c(c3)OCO4)n12 5.7%, Cc1noc(C)c1S(=O)(=O)N(C)C[C@H]1Oc2c(cccc2N(C)C)C(=O)N([C@H](C)CO)C[C@@H]1C 0.203%, O=C(Nc1ccccc1C(=O)N1CCOCC1)c1noc2c1CCCC2 3.29%, Cc1ccccc1CNc1nnnn1C 5.25%, Cc1cc(C)nc(NCc2ccc(Cl)cc2)n1 -2.03%, Cc1nn(Cc2ccc([N+](=O)[O-])cc2)c(=O)n1-c1cccc(Cl)c1 3.54%, COc1cccc(C(C[N+](=O)[O-])c2c(C)[nH]n(-c3ccccc3)c2=O)c1 (stereo not given) -3.47%, CC(C)(C)c1ccc(OCCC(=O)NC2=NCCS2)cc1 3.4%, Cc1ccc(S(=O)(=O)Nc2ccc3c(c2)C(=O)N([C@H](C)CO)C[C@@H](C)[C@@H](CN(C)C(=O)Nc2cccc4ccccc24)O3)cc1 2.6%, O=C(Cn1cnc2c(OCc3ccccc3)ncnc21)NCCCc1ccccc1 -1.56%, Cc1cccnc1Nc1nc(-c2ccc(O)cc2)cs1 -2.68%, COc1cccc(Oc2nccc(N(C)C)c2C#N)c1 -0.396%, O=C(CSc1nnc(CNC(=O)c2ccccc2F)o1)NCCc1ccccc1 2.93%, CCOc1cc(/C=C\c2[nH]c(=O)[nH]c(=O)c2[N+](=O)[O-])ccc1OC(C)CC (stereo not given) -8.92%, C#CCOCCOCCOCCNc1nc(N2CCOCC2)nc(N2CCN(C(=O)[C@H](Cc3cc4ccccc4[nH]3)n3cc([C@@H](N)CC(C)C)nn3)CC2)n1 2.27%, Cn1c(=O)c2[nH]c(N3CCN(c4cccc(O)c4)CC3)nc2n(C)c1=O 2.66%, C[C@H](CO)N1C[C@H](C)[C@@H](CN(C)S(C)(=O)=O)Oc2ccc(N(C)C)cc2C1=O 3.79%, COc1ccc(-n2cc(CNCCc3cscn3)c(-c3ccccc3Cl)n2)cc1 7.18%, COC(=O)[C@]1(C)N[C@H](CN(C)C(=O)Nc2ccccc2)[C@@H]2C(=O)N(Cc3ccccc3)C(=O)[C@@H]21 -0.144%, CCN(C[C@H]1N[C@@](CC)(C(=O)OC)[C@H]2C(=O)N(C)C(=O)[C@@H]12)S(=O)(=O)c1ccc(C(F)(F)F)cc1 5.54%, O=[N+]([O-])c1ccccc1NCc1ccc(Cl)cc1 -4.49%, C/C(=N\Nc1nc(C(=O)O)cs1)c1ccccc1 -0.0561%, Cc1ccc(N(CC(=O)N2CCn3c2nc2ccccc23)S(=O)(=O)c2c(C)n[nH]c2C)cc1 1.4%, COc1cc2nc(-c3ccccc3C)oc(=O)c2cc1OC -4.96%, COc1ccc2c(C)nc(Nc3nc(C)cc(C)n3)nc2c1 -4.81%, CCc1nc(NCc2ccc3c(c2)OCO3)c2oc3ccccc3c2n1 4.63%, O=S(=O)(Nc1ccccc1)c1ccc(NS(=O)(=O)c2c(F)cccc2F)cc1 -0.423%

— PubChem BioAssay AID488835 (Broad Institute, 2010)
